We go through 1 substance from publication PMC9706435.

Protein sequences, listed by entry. Tags and fused reporters are not part of them. Lines headed by an entry give the natural chain unless they say otherwise; changes in a name come on top.
UniProt F4IHY7: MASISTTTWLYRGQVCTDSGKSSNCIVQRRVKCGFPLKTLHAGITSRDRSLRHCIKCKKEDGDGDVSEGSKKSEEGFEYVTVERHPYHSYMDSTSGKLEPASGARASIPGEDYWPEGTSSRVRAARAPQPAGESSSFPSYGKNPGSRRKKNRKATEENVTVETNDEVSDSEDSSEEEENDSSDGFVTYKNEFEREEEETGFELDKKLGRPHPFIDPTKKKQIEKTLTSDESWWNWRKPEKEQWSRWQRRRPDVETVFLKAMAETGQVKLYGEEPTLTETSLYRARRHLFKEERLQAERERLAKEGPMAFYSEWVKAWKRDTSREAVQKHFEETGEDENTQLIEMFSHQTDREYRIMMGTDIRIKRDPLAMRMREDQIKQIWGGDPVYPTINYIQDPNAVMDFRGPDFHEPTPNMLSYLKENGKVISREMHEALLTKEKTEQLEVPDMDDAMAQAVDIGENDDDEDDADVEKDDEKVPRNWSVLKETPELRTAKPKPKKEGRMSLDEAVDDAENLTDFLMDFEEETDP
UniProt Q9SR02: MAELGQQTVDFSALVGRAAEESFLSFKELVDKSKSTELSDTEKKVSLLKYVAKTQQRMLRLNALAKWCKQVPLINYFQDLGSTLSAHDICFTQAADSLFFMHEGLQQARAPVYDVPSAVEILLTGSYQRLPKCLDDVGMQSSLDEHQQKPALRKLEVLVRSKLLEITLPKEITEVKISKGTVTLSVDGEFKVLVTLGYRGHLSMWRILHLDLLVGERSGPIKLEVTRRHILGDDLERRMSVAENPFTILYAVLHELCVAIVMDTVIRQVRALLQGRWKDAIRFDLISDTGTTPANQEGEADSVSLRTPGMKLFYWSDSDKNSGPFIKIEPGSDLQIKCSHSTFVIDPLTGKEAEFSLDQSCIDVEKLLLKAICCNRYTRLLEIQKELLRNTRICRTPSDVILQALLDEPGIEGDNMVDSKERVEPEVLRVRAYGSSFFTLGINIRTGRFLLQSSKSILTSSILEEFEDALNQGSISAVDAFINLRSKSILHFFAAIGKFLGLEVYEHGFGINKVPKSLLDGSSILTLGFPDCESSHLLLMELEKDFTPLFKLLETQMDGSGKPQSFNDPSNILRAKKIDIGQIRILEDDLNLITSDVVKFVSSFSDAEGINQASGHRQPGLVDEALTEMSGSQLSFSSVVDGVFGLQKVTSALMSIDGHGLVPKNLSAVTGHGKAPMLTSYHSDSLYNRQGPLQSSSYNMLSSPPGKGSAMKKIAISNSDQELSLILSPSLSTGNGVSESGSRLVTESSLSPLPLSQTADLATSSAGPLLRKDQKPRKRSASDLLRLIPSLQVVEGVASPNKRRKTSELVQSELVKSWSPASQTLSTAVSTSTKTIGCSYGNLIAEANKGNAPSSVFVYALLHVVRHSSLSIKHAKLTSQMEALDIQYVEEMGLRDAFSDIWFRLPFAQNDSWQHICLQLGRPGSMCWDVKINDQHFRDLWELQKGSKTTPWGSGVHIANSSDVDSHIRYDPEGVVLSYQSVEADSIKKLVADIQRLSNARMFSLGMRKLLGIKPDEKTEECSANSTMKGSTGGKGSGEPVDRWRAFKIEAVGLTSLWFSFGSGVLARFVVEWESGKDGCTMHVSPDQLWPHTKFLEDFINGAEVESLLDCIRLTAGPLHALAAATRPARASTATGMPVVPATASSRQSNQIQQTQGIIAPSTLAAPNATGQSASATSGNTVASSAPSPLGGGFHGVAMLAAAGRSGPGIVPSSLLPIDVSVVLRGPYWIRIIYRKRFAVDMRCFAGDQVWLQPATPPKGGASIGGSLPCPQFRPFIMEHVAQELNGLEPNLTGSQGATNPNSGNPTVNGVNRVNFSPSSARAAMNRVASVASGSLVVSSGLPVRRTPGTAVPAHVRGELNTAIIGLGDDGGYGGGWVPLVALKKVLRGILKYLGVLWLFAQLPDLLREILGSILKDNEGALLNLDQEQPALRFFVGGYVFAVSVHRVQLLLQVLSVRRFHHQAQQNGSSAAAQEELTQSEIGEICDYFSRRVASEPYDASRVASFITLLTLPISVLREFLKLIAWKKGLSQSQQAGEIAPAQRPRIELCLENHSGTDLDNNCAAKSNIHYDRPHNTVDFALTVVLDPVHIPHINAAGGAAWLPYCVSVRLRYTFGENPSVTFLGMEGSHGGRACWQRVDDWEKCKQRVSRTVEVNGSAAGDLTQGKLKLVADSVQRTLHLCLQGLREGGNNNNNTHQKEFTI

In this test the target is GST-HMR (HEMERA) (Arabidopsis thaliana) (UniProt F4IHY7). The test is described as follows: pull-down; GST-PIF4 or GST-HMR bait immobilised on glutathione Sepharose 4B beads, incubated with in vitro translated HA-MED14 at 4°C for 2 h; washed four times with E buffer (50 mM Tris-HCl pH 7.5, 100 mM NaCl, 1 mM EDTA, 1 mM EGTA, 1% DMSO, 2 mM DTT, 0.1% Nonidet P-40); anti-HA immunoblot; only the target purified.

These are yes or no findings as the source states them, for the method shown. Binding seen in cells or lysates may run through a third protein. A result given as binding can be weak or reduced; the word gives no strength.

Regarding HA-MED14 (from UniProt Q9SR02 1-1703), the binding entry is “binds”.
